The values below come from PMC9114397.

Protein sequences, listed by entry. Tags and fused reporters are not part of them. Residues count along the entry.
UniProt P23572: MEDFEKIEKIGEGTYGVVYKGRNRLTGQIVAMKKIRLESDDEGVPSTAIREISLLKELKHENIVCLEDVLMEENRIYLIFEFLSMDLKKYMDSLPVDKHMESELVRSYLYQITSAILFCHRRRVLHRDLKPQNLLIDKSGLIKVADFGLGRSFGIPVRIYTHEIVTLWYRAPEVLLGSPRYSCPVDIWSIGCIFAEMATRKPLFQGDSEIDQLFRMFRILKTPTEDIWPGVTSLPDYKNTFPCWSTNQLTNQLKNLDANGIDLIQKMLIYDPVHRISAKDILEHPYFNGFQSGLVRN
UniProt P18537, residues 19-581: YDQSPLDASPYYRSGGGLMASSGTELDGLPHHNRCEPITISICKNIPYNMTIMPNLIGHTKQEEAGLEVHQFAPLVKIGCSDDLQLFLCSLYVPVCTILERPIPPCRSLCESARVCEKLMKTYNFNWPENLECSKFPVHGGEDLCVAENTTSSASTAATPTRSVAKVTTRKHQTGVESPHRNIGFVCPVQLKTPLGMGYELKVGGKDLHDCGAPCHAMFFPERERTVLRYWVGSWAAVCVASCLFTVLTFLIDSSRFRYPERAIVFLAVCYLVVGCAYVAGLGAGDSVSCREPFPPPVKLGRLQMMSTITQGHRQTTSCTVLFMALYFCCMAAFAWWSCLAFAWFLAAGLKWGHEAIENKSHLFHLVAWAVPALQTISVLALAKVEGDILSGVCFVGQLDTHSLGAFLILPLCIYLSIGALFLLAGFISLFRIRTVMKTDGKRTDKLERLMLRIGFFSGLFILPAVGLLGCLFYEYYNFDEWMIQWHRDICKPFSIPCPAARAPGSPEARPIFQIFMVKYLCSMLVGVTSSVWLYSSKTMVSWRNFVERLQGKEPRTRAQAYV

These are yes or no findings as the source states them, for the method shown. In cells and extracts the contact can be indirect. Some results given as binding are weak or reduced against the parent protein; the word gives no strength. For part of these data: Tags and fused reporters may be left off the sequences shown.

The target of assay [1] is T1, CycA::HA (HA-tagged Cyclin A, from UAS-CycA::HA) (Drosophila melanogaster) (UniProt P14785).
T1 sequence: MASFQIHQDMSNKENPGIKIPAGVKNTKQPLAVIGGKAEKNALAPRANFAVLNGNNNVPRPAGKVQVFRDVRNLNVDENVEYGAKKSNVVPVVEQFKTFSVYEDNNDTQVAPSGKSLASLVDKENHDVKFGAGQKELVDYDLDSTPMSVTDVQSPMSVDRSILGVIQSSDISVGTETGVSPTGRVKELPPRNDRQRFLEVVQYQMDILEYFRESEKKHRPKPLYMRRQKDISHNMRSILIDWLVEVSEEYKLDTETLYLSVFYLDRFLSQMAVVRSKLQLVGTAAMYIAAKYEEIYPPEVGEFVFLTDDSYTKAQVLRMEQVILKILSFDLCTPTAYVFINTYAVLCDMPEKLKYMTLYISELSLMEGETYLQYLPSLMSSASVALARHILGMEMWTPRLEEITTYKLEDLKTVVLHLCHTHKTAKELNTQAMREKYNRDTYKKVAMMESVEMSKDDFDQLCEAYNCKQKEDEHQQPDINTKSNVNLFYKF
Put plainly: co-IP; lysates of embryos overexpressing CycA::HA, Fz::GFP and Dsh::myc; beads coupled to HA antibodies, 3 h at 4 °C; 200 mM Tris pH7.5, 150 mM NaCl, 0.2% NP40; western blot with anti-GFP, anti-Myc, anti-Cdk1 (PSTAIR); controls: embryos with only Fz::GFP and Dsh::myc, or w1118.

Assay [2] deals with T2, Cyclin A (endogenous CycA in pI cells) (Drosophila melanogaster (endogenous in pupal pI cells)) (UniProt P14785).
T2 sequence: T1 sequence
Put plainly: proximity ligation; DuoLink kit on fixed pupal nota; rabbit anti-CycA and mouse anti-GFP; epitopes <40 nm apart give a dot; pI cells of arm-fz::GFP pupae with or without overexpressed CycA:HA, or of DE-Cad::GFP pupae.

For “Cdk1 (from UniProt P23572 1-297) (enzyme)”, the binding entry in assay [1] is “binds”. Take “Fz::GFP (Frizzled fused to GFP, arm-fz::GFP) (from UniProt P18537 19-581) (receptor)”: the binding entry in assay [2] and in assay [1] was “binds” throughout.
